Results are given in words; binding and its absence hold for the method and conditions named. Some entries that bind do so weakly or less than the wild type.
Target: T1, Limbin/EVC-2 (human) (UniProt Q86UK5)
T1 sequence (looked up): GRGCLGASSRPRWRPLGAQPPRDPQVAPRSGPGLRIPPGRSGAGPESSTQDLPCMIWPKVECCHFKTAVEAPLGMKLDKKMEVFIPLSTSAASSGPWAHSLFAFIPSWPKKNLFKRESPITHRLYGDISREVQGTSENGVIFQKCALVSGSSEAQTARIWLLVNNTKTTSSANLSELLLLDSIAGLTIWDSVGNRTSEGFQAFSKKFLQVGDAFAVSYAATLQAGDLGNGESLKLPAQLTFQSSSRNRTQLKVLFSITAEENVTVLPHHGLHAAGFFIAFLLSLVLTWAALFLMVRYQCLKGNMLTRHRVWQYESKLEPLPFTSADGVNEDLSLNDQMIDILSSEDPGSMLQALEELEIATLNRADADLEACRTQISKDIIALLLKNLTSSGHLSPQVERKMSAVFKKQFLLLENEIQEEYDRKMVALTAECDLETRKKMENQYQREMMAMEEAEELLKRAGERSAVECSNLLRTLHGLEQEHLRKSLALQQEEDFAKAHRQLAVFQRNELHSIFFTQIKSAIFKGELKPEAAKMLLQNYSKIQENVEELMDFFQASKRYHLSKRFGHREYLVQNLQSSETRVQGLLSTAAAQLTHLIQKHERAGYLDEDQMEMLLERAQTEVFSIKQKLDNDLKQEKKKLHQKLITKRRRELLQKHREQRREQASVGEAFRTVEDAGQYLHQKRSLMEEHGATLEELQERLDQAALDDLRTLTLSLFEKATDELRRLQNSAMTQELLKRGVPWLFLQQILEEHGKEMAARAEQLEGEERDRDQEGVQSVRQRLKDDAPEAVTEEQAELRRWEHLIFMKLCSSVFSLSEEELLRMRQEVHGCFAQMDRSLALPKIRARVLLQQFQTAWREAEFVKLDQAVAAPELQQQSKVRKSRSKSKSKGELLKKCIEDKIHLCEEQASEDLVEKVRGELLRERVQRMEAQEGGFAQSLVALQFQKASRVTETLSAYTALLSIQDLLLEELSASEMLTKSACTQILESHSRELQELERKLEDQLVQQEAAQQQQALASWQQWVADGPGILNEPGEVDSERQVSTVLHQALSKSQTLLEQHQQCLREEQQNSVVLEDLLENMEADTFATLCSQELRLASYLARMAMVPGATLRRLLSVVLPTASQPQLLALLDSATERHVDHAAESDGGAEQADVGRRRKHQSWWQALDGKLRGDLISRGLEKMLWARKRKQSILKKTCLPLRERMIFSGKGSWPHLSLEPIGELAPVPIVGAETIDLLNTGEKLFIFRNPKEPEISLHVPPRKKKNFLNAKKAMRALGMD
Test: antigen identified by probing a human fetal brain cDNA expression library with the scFv; flow cytometry on MSCs

binding: binds
B1: recombinant scFv TMSC3 (scFv)
scFv: ALTQPSSVSANLGGTVEITCSGGSGSYGWFQQKSPGSAPVTVIYESNKRPSDIPSRFSGSKSGSTGTLTITGVQAEDEAVYFCGSRDSSGSAYAFATGTTLTVLGQSSRSSTVTLDESGGGLQAPGGALSLVCKASGFTFSSYCMQWVRQAPGKGLEFVAGIDDDGSWTAYGAAVKGRATILRDNGQSTVRLQLNNLRAEDTATYYCAKTAGGSYYGCENIDAWGHGTEVIVSSTSGQAGQHHHHHHGAYPYDVPDYAS
